Laboratory results published in paper PMC12392934, “TCP19 regulates nitrogen‐dependent sheath blight susceptibility by modulating nitrogen uptake and signalling in rice”.
Results are given in words; binding and its absence hold for the method and conditions named. For part of these data: A result given as binding can be weak or reduced; the word gives no strength. For part of these data: Tags and fused reporters may be left off the sequences shown. For part of these data: Binding seen in cells or lysates may run through a third protein. One block for each molecule: values may come before it.

Experiments:
[1] = molecular target: T1, PIL15-3xFLAG (rice (Oryza sativa)) (UniProt Q0JNI9); assay: co-IP; tagged proteins co-expressed in tobacco leaves; total protein (150 mM NaCl, 2.5 mM Tris-HCl, 1 mM EDTA, 10% glycerol, 0.1% NP40) precipitated with anti-GFP or anti-FLAG magnetic beads; western blot
T1 sequence: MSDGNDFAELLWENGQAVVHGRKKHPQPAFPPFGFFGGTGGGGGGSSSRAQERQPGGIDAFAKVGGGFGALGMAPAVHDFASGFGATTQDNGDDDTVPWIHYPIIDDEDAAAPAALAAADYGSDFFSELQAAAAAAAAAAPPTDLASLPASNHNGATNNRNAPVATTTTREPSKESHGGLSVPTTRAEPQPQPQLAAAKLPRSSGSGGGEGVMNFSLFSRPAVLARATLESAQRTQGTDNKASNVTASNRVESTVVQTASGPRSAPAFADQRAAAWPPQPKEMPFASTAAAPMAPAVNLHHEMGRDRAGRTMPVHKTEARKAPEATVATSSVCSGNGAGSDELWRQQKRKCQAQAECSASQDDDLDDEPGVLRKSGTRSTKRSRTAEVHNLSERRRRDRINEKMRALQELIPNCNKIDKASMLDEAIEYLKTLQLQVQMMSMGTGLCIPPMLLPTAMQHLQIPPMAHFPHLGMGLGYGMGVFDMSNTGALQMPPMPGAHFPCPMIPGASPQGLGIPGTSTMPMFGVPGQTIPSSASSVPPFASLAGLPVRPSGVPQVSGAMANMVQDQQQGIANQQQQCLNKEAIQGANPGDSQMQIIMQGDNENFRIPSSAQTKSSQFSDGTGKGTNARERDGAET

[2] = molecular target: T2, PIL15-cCFP (rice (Oryza sativa)) (UniProt Q0JNI9); assay: split reporter; BiFC: nYFP and cCFP fusions co-expressed with H2B-mRFP in N. benthamiana leaves by agroinfiltration; confocal microscopy after 36-72 h
T2 sequence: T1 sequence

[3] = molecular target: IDD10-cCFP (rice (Oryza sativa)); assay: as above
[4] = molecular target: IDD10 in pBridge MCSI (rice (Oryza sativa)); assay: two-hybrid; yeast three-hybrid: pGADT7 fusions with IDD10 in pBridge MCSI and DEP1 in pBridge MCSII, strain Y2HGold; SD/-Leu-His-Trp and SD/-Leu-Met/-His-Trp
[5] = molecular target: IDD10-BD (rice (Oryza sativa)); assay: two-hybrid; pairwise, pGAD424 (AD) and pGBT9 (BD) fusions in yeast strain PJ694A; growth on SD/-Leu-His-Trp
[6] = molecular target: TCP19 (Y2H fusion tested with DEP1) (rice (Oryza sativa)); assay: as above
[7] = molecular target: IDD10-NLUC (rice (Oryza sativa)); assay: split reporter; split firefly luciferase complementation: IDD10-NLUC with CLUC fusions in N. benthamiana leaves, with or without DEP1-GFP; luminescence by CCD camera
[8] = molecular target: IDD10-GFP (rice (Oryza sativa)); assay: co-IP; tagged proteins co-expressed in tobacco leaves; total protein (150 mM NaCl, 2.5 mM Tris-HCl, 1 mM EDTA, 10% glycerol, 0.1% NP40) precipitated with anti-GFP or anti-FLAG magnetic beads; western blot
[9] = molecular target: IDD10-FLAG (rice (Oryza sativa)); assay: co-IP; competitive co-IP: IDD10-FLAG with TCP19-GFP or PIL15-GFP in the presence or absence of DEP1-MYC; immunoprecipitation with anti-FLAG antibodies, immunoblot

Molecule: TCP19-MYC (rice (Oryza sativa))
- binding [1]: binds

Molecule: IDD10-MYC (rice (Oryza sativa))
- binding [1]: binds

Molecule: IDD10-nYFP (rice (Oryza sativa))
- binding [2]: binds

Molecule: TCP19-nYFP (rice (Oryza sativa))
- binding [2]: binds

B1: DEP1-nYFP (protein, UniProt Q67UU9 1-426)
chain: MGEEAVVMEAPRPKSPPRYPDLCGRRRMQLEVQILSREITFLKDELHFLEGAQPVSRSGCIKEINEFVGTKHDPLIPTKRRRHRSCRLFRWIGSKLCICISCLCYCCKCSPKCKRPRCLNCSCSSCCDEPCCKPNCSACCAGSCCSPDCCSCCKPNCSCCKTPSCCKPNCSCSCPSCSSCCDTSCCKPSCTCFNIFSCFKSLYSCFKIPSCFKSQCNCSSPNCCTCTLPSCSCKGCACPSCGCNGCGCPSCGCNGCGCPSCGCNGCGLPSCGCNGCGSCSCAQCKPDCGSCSTNCCSCKPSCNGCCGEQCCRCADCFSCSCPRCSSCFNIFKCSCAGCCSSLCKCPCTTQCFSCQSSCCKRQPSCCKCQSSCCEGQPSCCEGHCCSLPKPSCPECSCGCVWSCKNCTEGCRCPRCRNPCCLSGCLC
- binding [3]: binds

B2: DEP1 in pBridge MCSII (protein, UniProt Q67UU9 1-426)
chain: B1 chain
- binding [4]: binds

B3: DEP1-AD (protein, UniProt Q67UU9 1-426)
chain: B1 chain
- binding [5]: binds
- binding [6]: no binding

B7: PIL15-GFP (protein, UniProt Q0JNI9 1-637)
chain: T1 sequence
- binding [9]: binds

B8: PIL15-AD (protein, UniProt Q0JNI9 1-637)
chain: T1 sequence
- binding [5]: binds

Further lines, results first:

- binding [7]: binds
B4: DEP1-GFP (protein, UniProt Q67UU9 1-426)
chain: B1 chain

- binding [8]: binds
- binding [9]: binds
B5: DEP1-MYC (protein, UniProt Q67UU9 1-426)
chain: B1 chain

- binding [4]: binds
B6: PIL15-pGADT7 (protein, UniProt Q0JNI9 1-637)
chain: T1 sequence

- binding [7]: binds
B9: PIL15-CLUC (protein, UniProt Q0JNI9 1-637)
chain: T1 sequence
